Mtb heat-shock: 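Assay on Mycobacterium tuberculosis, filed only as a heat shock assay from Cornell; the read-out is not stated. The concentration is filed as 10 mM, unlikely as a test dose, so the dose is not known. The record gives no direction; compounds that gave an IC50 in retests scored well above the rest, so higher reads as stronger inhibition. About 69,000 compounds were tested under these conditions; 1.4% (about 930) showed 50% or more at least once.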
LdMetRS: 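Methionyl-tRNA synthetase (putative), Leishmania donovani (UniProt E9BF75). Primary screen of methionyl-tRNA synthetase; the read-out is not stated. The test concentration is not given. The values are filed as inhibition. Of about 68,000 compounds tested this way, about 24 (0.035%) reached 50% or more in at least one test.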
Mtb growth Cornell: 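Whole-cell assay for inhibitors of Mycobacterium tuberculosis growth, labelled Cornell in the record; the read-out is not stated. The concentration is filed as 10 mM, unlikely as a test dose, so the dose is not known. Higher means stronger inhibition (inferred from two other growth screens of the library). Of about 53,000 compounds tested this way, about 900 (1.7%) reached 50% or more in at least one test.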

Chains of the proteins cited; added tags and fusions are not shown.
UniProt E9BF75, entry or part of it: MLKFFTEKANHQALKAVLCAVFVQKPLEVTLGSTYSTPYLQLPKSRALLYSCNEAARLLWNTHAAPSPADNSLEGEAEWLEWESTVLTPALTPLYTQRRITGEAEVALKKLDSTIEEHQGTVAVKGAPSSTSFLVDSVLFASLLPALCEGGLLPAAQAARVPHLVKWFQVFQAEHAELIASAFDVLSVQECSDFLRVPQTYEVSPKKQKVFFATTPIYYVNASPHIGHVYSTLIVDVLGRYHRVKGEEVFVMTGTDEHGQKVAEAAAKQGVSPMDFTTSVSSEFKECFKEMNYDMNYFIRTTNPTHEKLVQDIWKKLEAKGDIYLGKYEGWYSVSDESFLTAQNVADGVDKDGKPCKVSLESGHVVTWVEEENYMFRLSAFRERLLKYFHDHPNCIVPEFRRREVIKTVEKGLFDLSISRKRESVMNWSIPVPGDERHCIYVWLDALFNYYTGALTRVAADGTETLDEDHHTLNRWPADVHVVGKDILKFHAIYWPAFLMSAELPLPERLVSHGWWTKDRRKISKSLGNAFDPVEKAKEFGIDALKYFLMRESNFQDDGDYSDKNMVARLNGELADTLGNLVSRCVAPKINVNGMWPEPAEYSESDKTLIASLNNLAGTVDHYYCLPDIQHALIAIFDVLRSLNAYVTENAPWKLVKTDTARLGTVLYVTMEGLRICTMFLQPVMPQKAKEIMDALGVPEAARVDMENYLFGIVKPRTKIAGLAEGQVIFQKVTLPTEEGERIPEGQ

Results are percentages, as filed. How 0% and 100% were set is not recorded. Most values in the screen are low, and negative values occur. Compounds were drawn at random from those tested, without regard to their results. A dash means the value is not listed here; it may have been measured.

* CN1CCCN(C(=O)c2cnsn2)c2cc(Cl)ccc21 : Mtb heat-shock: -8.8%; LdMetRS: 16.53%; Mtb growth Cornell: 23.17%
* CCN(CC)C(=O)c1cccc(Cn2nc(C)cc2C)c1 : Mtb heat-shock: 1.36%; LdMetRS: 7.453%; Mtb growth Cornell: 24.09%
* COCCC1CCCCN1Cc1nc(C2CC2)no1 (stereo not given) : Mtb heat-shock: 11.21%; LdMetRS: 10.12%; Mtb growth Cornell: 1.59%
* NC(=O)c1cncc(Oc2cccc(CN3CCCC3)c2Cl)n1 : Mtb heat-shock: 15.48%; LdMetRS: 14.49%; Mtb growth Cornell: 14.87%
* Cc1ccc(CN2CCCC3(CCC(=O)N3)CC2)s1.O=C(O)C(F)(F)F (stereo not given) : Mtb heat-shock: -4.769%
* CC(=O)NCC1CCN(CC2CCOc3ccccc3C2)CC1 (stereo not given) : Mtb heat-shock: 24.96%; LdMetRS: 11.5%; Mtb growth Cornell: -7.547%
* O=C1NCC(C(=O)Nc2ncc(Cc3ccccc3F)s2)N1 (stereo not given) : Mtb heat-shock: 6.026%; LdMetRS: 18.23%; Mtb growth Cornell: -78.07%
* COc1ccc(NCc2c[nH]nc2-c2cccnc2)cc1 : Mtb heat-shock: -4.516%; LdMetRS: 2.989%; Mtb growth Cornell: 0.7918%
* COCCN1C[C@@H]2[C@@H](OC)CCN(Cc3ccc(C)o3)[C@@H]2C1 : LdMetRS: 21.25%
* CN(C)S(=O)(=O)Nc1ccc(-n2nncc2C(F)(F)F)cc1 : Mtb heat-shock: -5.119%; LdMetRS: 4.712%; Mtb growth Cornell: 30.11%
* Cc1ccc(-n2c(SCC(=O)O)nnc2-c2cccc(C)c2)cc1 : Mtb heat-shock: 4.222%; LdMetRS: 5.178%; Mtb growth Cornell: 17.16%
* CCn1cc(NS(=O)(=O)c2ccc(Br)s2)c(C(=O)NCC(C)C)n1 : Mtb heat-shock: 4.074%; LdMetRS: -0.5263%; Mtb growth Cornell: 9.846%
* [H][C@]12CC[C@]([H])(CN(C(=O)c3cnccn3)C1)N(C(=O)CCc1ccsc1)C2 : Mtb heat-shock: -29.09%; Mtb growth Cornell: 4.84%
* CCc1ccc2nc(-c3cnn(C)c3)cc(C(=O)N3CCOCC3)c2c1 : Mtb heat-shock: -13.41%; LdMetRS: 9.756%; Mtb growth Cornell: -3.249%
* Cc1nc(Nc2ncccn2)cc(C2CCCN2C2CCOCC2)n1 (stereo not given) : Mtb heat-shock: 4.322%; LdMetRS: 18.84%; Mtb growth Cornell: 3.005%
* CNC(=O)c1cc2c(nc1NCC(C)C)CCN(c1ncccn1)CC2 : LdMetRS: 5.842%
* O=C1C(N2CC[C@@H](O)C2)CCCN1Cc1cccc(C(F)(F)F)c1 (stereo not given in full) : Mtb heat-shock: -1.406%; LdMetRS: 8.669%; Mtb growth Cornell: -1.909%
* CN(Cc1ccccc1C(F)(F)F)C(C(N)=O)c1ccccc1 (stereo not given) : Mtb heat-shock: -20.64%; LdMetRS: 4.192%; Mtb growth Cornell: -4.322%
* CCn1c(C)nnc1SCCn1cc(-c2nccs2)nn1 : Mtb heat-shock: 9.712%; LdMetRS: 8.696%; Mtb growth Cornell: -8.266%
* Cn1nnc(NCc2ccccc2OCc2ccc(Cl)cc2)n1 : Mtb heat-shock: 7.851%; LdMetRS: -11.26%
* O=C(NCCCO)c1cc(-c2ccc3c(c2)CCO3)n[nH]1 : Mtb heat-shock: -7.883%; LdMetRS: 9.394%; Mtb growth Cornell: -19.3%

The last 2 entries again:

structure	Mtb heat-shock	LdMetRS	Mtb growth Cornell
Cn1nnc(NCc2ccccc2OCc2ccc(Cl)cc2)n1	7.851	-11.26	-
O=C(NCCCO)c1cc(-c2ccc3c(c2)CCO3)n[nH]1	-7.883	9.394	-19.3

Source: ChEMBL document CHEMBL3988442, “University of Dundee, Small-Polar-MMV Screening Library” (2021).